Results deposited as PubChem BioAssay AID1259254 (NCATS, 2017)
Purpose: 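Finding genes that stop cells copying their DNA twice in one cycle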 (primary screen). Cells: human HCT116 colorectal cancer cells. Knock-down reagent: single siRNA against human genes. Timing: 3 days. Detection: 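Nuclei stained with Hoechst and imaged; cell-cycle phase assigned by DNA content; G2 share scaled per plate, non-targeting siRNA 0%, GMNN siRNA 100%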. Direction: G2 robust z-score: higher = more G2 cells, more excess DNA replication. Rule for the call: 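An siRNA counts as active if its G2 robust z-score lies at least 5 MADs above the screen median; here such calls match roughly 38% of GMNN control or more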.
The deposit covers about 59,000 reagents; below is a part drawn at random. About 1,550 of all reagents (2.6%) were called active. 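G2 share is only a proxy for re-replication; each gene was hit by three separate siRNAs, and active genes were retested.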 Reagents against one gene are numbered here. Further read-outs or replicates are left out here. Not stated in the record: the amount of reagent.

{"Gene": "RPEL1 (ribulose-5-phosphate-3-epimerase like 1)", "reagent no.": 1, "G2 robust z-score": 1.54, "Outcome": "inactive"}
{"Gene": "RPEL1 (ribulose-5-phosphate-3-epimerase like 1)", "reagent no.": 2, "G2 robust z-score": 3.7, "Outcome": "inactive"}
{"Gene": "RPEL1 (ribulose-5-phosphate-3-epimerase like 1)", "reagent no.": 3, "G2 robust z-score": 0.471, "Outcome": "inactive"}
{"Gene": "RPEL1 (ribulose-5-phosphate-3-epimerase like 1)", "reagent no.": 4, "G2 robust z-score": 2.39, "Outcome": "inactive"}
{"Gene": "RPEL1 (ribulose-5-phosphate-3-epimerase like 1)", "reagent no.": 5, "G2 robust z-score": 1.75, "Outcome": "inactive"}
{"Gene": "RPEL1 (ribulose-5-phosphate-3-epimerase like 1)", "reagent no.": 6, "G2 robust z-score": 0.594, "Outcome": "inactive"}
{"Gene": "AREG (amphiregulin)", "reagent no.": 1, "G2 robust z-score": 0.074, "Outcome": "inactive"}
{"Gene": "AREG (amphiregulin)", "reagent no.": 2, "G2 robust z-score": -0.0121, "Outcome": "inactive"}
{"Gene": "AREG (amphiregulin)", "reagent no.": 3, "G2 robust z-score": -0.38, "Outcome": "inactive"}
{"Gene": "DUSP5 (dual specificity phosphatase 5)", "reagent no.": 1, "G2 robust z-score": -0.3, "Outcome": "inactive"}
{"Gene": "DUSP5 (dual specificity phosphatase 5)", "reagent no.": 2, "G2 robust z-score": 2.25, "Outcome": "inactive"}
{"Gene": "DUSP5 (dual specificity phosphatase 5)", "reagent no.": 3, "G2 robust z-score": 0.776, "Outcome": "inactive"}
{"Gene": "TICRR (TOPBP1 interacting checkpoint and replication regulator)", "reagent no.": 1, "G2 robust z-score": 5.23, "Outcome": "active"}
{"Gene": "TICRR (TOPBP1 interacting checkpoint and replication regulator)", "reagent no.": 2, "G2 robust z-score": -0.817, "Outcome": "inactive"}
{"Gene": "TICRR (TOPBP1 interacting checkpoint and replication regulator)", "reagent no.": 3, "G2 robust z-score": -0.915, "Outcome": "inactive"}
{"Gene": "PRRG3 (proline rich and Gla domain 3)", "reagent no.": 1, "G2 robust z-score": -0.697, "Outcome": "inactive"}
{"Gene": "PRRG3 (proline rich and Gla domain 3)", "reagent no.": 2, "G2 robust z-score": 0.501, "Outcome": "inactive"}
{"Gene": "PRRG3 (proline rich and Gla domain 3)", "reagent no.": 3, "G2 robust z-score": -0.518, "Outcome": "inactive"}
{"Gene": "BMP2K (BMP2 inducible kinase)", "reagent no.": 1, "G2 robust z-score": 0.0598, "Outcome": "inactive"}
{"Gene": "BMP2K (BMP2 inducible kinase)", "reagent no.": 2, "G2 robust z-score": -0.122, "Outcome": "inactive"}
{"Gene": "BMP2K (BMP2 inducible kinase)", "reagent no.": 3, "G2 robust z-score": -0.0191, "Outcome": "inactive"}
{"Gene": "GNGT1 (G protein subunit gamma transducin 1)", "reagent no.": 1, "G2 robust z-score": -0.616, "Outcome": "inactive"}
{"Gene": "GNGT1 (G protein subunit gamma transducin 1)", "reagent no.": 2, "G2 robust z-score": -0.194, "Outcome": "inactive"}
{"Gene": "GNGT1 (G protein subunit gamma transducin 1)", "reagent no.": 3, "G2 robust z-score": -1.18, "Outcome": "inactive"}
